Sequences of proteins named here, by UniProt entry; tags and fusion partners are left off. A change or cut given only in a name is not applied to a line headed by its entry.
UniProt Q8IUX4: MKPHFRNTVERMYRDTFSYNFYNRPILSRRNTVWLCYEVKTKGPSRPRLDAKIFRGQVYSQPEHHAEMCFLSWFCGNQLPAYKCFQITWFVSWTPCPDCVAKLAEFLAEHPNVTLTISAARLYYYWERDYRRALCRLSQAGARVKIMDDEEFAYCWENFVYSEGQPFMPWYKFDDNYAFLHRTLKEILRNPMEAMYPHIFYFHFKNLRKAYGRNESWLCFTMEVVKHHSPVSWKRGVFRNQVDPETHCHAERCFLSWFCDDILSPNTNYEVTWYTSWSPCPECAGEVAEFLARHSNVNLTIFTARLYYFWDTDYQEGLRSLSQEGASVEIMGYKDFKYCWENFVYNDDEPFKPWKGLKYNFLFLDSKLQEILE

About 590 (28%) of roughly 2,100 compounds were called active. Inconclusive means that the source gave no clear call. Such entries were picked first, then a sample of the others. Calls follow the shape of the dose curve; as a rule, active = well fitted inhibition curve with a large enough effect; inconclusive = small, poorly fitted or top-dose-only effect; inactive = flat fitted curve, though single readings scatter. Potencies of inconclusive entries are doubtful fits and often do not repeat.
What follows are molecules tested against DNA dC->dU-editing enzyme APOBEC-3F (Homo sapiens) (UniProt Q8IUX4) (assay: qHTS for inhibitors of Vif-A3F interactions: Cherry picks). Conditions: HeLa A3F-eYFP + Vif (tagged APOBEC3F with the HIV-1 protein that degrades it), eYFP fluorescence, 24 h.
Procedure, shortened: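 Read-out: yellow fluorescence (ex 488 nm, em 500-530 nm) by laser-scanning cytometer after 24 h compound exposure, several concentrations, at 37 deg C. Cells: HeLa line stably co-expressing Vif and C-terminally eYFP-tagged A3F; MG132 served as positive control.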
`COc1cc(C2C3=C(COC3=O)Oc3cc4c(cc32)OCO4)ccc1OC(C)=O` (configuration not stated) was tested, and the Potency was inconclusive: 1.25 µM [inhibitor, full curve].
`COc1cc(OC)cc(C(=O)N/N=C/c2ccc(OC)c(COc3ccc4ccccc4c3)c2)c1` was tested, and the Potency was inconclusive: 12.5 µM [inhibitor, single point].
`O=C(N=c1ccn(-c2nc3ccccc3nc2NS(=O)(=O)c2ccc(Cl)cc2)cc1)c1cccs1` was tested, and the Potency was active: 13 µM.
`Cc1cc(=O)oc2cc(OCC(=O)N3c4ccccc4CC3C)ccc12` (configuration not stated) was tested, and the Potency was inconclusive: 2.8 µM [inhibitor, full curve].
`Cc1cc(C)nc(-n2nc(C)cc2NC(=O)c2ccc(F)cc2F)n1` was tested, and the max response was inactive: -0.0521%.
In the case of `COc1ccc(/C=N/NC(=O)c2cccnc2)cc1COc1ccc(NC(C)=O)cc1`, the Potency is reported as inconclusive: 11.2 µM [inhibitor, partial curve].
With `CCN(CC)c1ccc(/C=C2\SC(N)=NC2=O)cc1` the Potency was inconclusive: 1.98 µM [inhibitor, full curve, poor fit].
With `CC1(C(=O)NCc2ccccc2)Cc2c(-c3ccc(C(N)=O)cc3)ccnc2O1` (configuration not stated) the Potency was inconclusive: 5.59 µM [inhibitor, partial curve].
For `CCCC(=O)NC(c1ccc(OC)cc1)c1ccc2cccnc2c1O` (configuration not stated), the max response was inactive: 0.49%.
With `CCOC(=O)/C=c1/s/c(=C\c2c(OC)ccc3ccccc23)c(=O)n1CC(=O)NCC1CCCO1` (configuration not stated) the Potency was active: 11.2 µM.
In the case of `Cc1cc(N2CCN(c3ccc([N+](=O)[O-])c4cccnc34)CC2)c2ccccc2n1`, the Potency is reported as active: 10.3 µM.
`COc1cc(/C=C(/C#N)c2nc3ccccc3[nH]2)ccc1OC(=O)c1ccco1` was tested, and the Potency was inconclusive: 2.8 µM [inhibitor, partial curve].
In the case of `CCOC(=O)Cn1c(=O)c(-c2cc(Br)ccc2N)nc2ccccc21`, the Potency is reported as active: 8.2 µM.
`CCCC(=O)Nc1nc2ccc(NC(=O)c3ccccc3F)cc2s1` was tested, and the Potency was inconclusive: 3.14 µM [inhibitor, partial curve].
With `CCOC(=O)c1c(C)nc2sc(C(=O)Nc3ccc(OC)cc3)c(N)c2c1-c1ccc(OC)cc1` the Potency was inconclusive: 2.8 µM [inhibitor, full curve, poor fit].
In the case of `O=C(Cc1n[nH]c(=O)c2ccccc12)OCC(=O)c1ccc2c(c1)OCCO2`, the Potency is reported as inconclusive: 1.98 µM [inhibitor, full curve].
In the case of `COc1ccc2cc(C(=O)C3CCCN(Cc4ccccn4)C3)ccc2c1` (configuration not stated), the max response is reported as inactive: 1.49%.
In the case of `Cc1ccc(/C=C/c2ccc(N(C)C)cc2)[n+](C)c1`, the Potency is reported as active: 8.86 µM.
In the case of `CCOC(=O)CSc1nc2c(c(=O)[nH]1)C(C)(CC)Cc1ccccc1-2` (configuration not stated), the Potency is reported as active: 8.2 µM.
With `NC(=O)C1CCN(c2nc3ccccc3nc2NS(=O)(=O)c2ccc(Br)cc2)CC1` the max response was inactive: -0.959%.
In the case of `Cc1ccccc1NC(=O)c1sc2nc3c(c(-c4ccco4)c2c1N)CCC3`, the max response is reported as inactive: -22.7%.
In the case of `Cc1nc2c3cc(F)ccc3n(Cc3ccccc3F)c2s1`, the Potency is reported as active: 14 µM.
For `C=C(NC(=O)C(=C)NC(=O)c1csc(C2=NC3c4csc(n4)C4NC(=O)c5csc(n5)C(C(C)(O)C(C)O)NC(=O)C5CSC(=N5)/C(=C/C)NC(=O)C(C(C)O)NC(=O)c5csc(n5)C3(CC2)NC(=O)C(C)NC(=O)C(=C)NC(=O)C(=C)NC(=O)C(C(C)C)NC2C=Cc3c(C(C)O)cc(nc3C2O)C(=O)OC4C)n1)C(N)=O` (configuration not stated), the Potency was active: 12.5 µM.
`COc1cc(C(=O)Nc2nnc(Cc3ccccc3)s2)cc(OC)c1OC` was tested, and the max response was inactive: -23.2%.
`O=C(O)c1ccc(-c2ccc(/C=N/Nc3ccc([N+](=O)[O-])cc3)o2)cc1` was tested, and the Potency was active: 15.8 µM.
`CC(=O)Nc1ccc(S(=O)(=O)Nc2nc3ccccc3nc2Nc2ccc(N)cc2)cc1` was tested, and the max response was inactive: -0.838%.
`CCOC(=O)COn1c(=O)c(-c2ccc(Br)cc2)[n+]([O-])c2ccccc21` was tested, and the max response was inactive: 3.1%.
With `N#Cc1cc2ccccc2nc1SCC(=O)Nc1ccccc1N1CCOCC1` the Potency was inconclusive: 18.4 µM [inhibitor, single point].
`COc1ccc(-c2cc(NC=O)c3ncc(-c4cccc(C(F)(F)F)c4)n3c2)cc1OC` was tested, and the Potency was inconclusive: 17.7 µM [inhibitor, partial curve].
For `Cc1cccc(C)c1NC(=S)NC(C)CCc1ccccc1` (configuration not stated), the max response was inactive: 1.36%.
With `Nc1ncnc2c1ncn2[C@@H]1O[C@H](CNCc2ccc(OCc3ccccc3)cc2)[C@@H](O)[C@H]1O` the Potency was inconclusive: 14 µM [inhibitor, single point].
For `COc1ccc(C(=O)c2sc3nc(C)cc(-c4cccs4)c3c2N)cc1`, the Potency was active: 18.4 µM.
In the case of `COc1ccccc1N=C(C)C1=C(O)CC(c2ccccc2)CC1=O` (configuration not stated), the Potency is reported as inconclusive: 0.353 µM [inhibitor, full curve].
With `N#Cc1c(C(F)(F)F)cc(-c2cccs2)nc1SCC(=O)Nc1ccc(Cl)cc1` the Potency was inconclusive: 6.51 µM [inhibitor, partial curve].
With `CCOC(=O)C1=C(Cc2ccc(Cl)cc2)C(=O)c2ccccc2C1=O` the Potency was active: 16.4 µM.
For `O=C1C=C(Nc2ccc(Cl)cc2Cl)CC(c2ccco2)C1` (configuration not stated), the Potency was inconclusive: 1.77 µM [inhibitor, full curve].
In the case of `Cc1cc(C)c2cc3c(N)c(C(=O)Nc4c(C)[nH]c(=O)[nH]c4=O)sc3nc2c1`, the Potency is reported as active: 13 µM.
With `O=C1OCC2=C1C(c1ccc3c(c1)OCO3)c1cc3c(cc1O2)OCO3` (configuration not stated) the Potency was inconclusive: 1.12 µM [inhibitor, full curve].
With `CCN(CC)c1ccc(/C=N/NC(=O)c2ccco2)c(O)c1` the Potency was inconclusive: 5.59 µM [inhibitor, partial curve].
`CN(Cc1cnn(Cc2ccccc2)c1)C(=O)c1cccc(S(=O)(=O)N2CCOCC2)c1` was tested, and the max response was inactive: -22%.
With `CCN(C)c1ccc(/C=C/c2ccnc3ccccc23)cc1` the Potency was active: 13 µM.
In the case of `CCOc1ccc(S(=O)(=O)NCc2ccccn2)cc1NC(=O)c1ccccc1`, the Potency is reported as inconclusive: 3.14 µM [inhibitor, full curve].
In the case of `CCOC(=O)c1ccc(NC(=S)NC(=O)C2CCCC2)cc1`, the max response is reported as inactive: -3.01%.
With `COc1cc(C(=O)Nc2ccc3c(c2)ncn3C)cc(OC)c1OC` the Potency was inconclusive: 2.5 µM [inhibitor, full curve].
`CN(C)c1ccc(/C=C(/C(=O)c2ccc(Cl)cc2Cl)n2cncn2)cc1` was tested, and the Potency was inconclusive: 17.7 µM [inhibitor, single point].
In the case of `COc1ccccc1NC1=NC(c2ccc(Cl)cc2)N=C(N)N1` (configuration not stated), the Potency is reported as inconclusive: 14 µM [inhibitor, single point].
`Cc1nnc(NC(=O)CSc2nc(C(C)C)nc3ccccc23)s1` was tested, and the Potency was inconclusive: 4.98 µM [inhibitor, full curve].
`CC12CC3CC(C)(C1)CC(C(=O)NC(=S)N1CCOCC1)(C3)C2` was tested, and the max response was inactive: 4.69%.
In the case of `Cc1cc2nc3c(=O)n(C4CCCCC4)c(=O)[nH]c3nc2cc1N`, the Potency is reported as active: 16.4 µM.
`Fc1ccccc1Nc1nc2ccccc2n2nnnc12` was tested, and the Potency was inconclusive: 18.4 µM [inhibitor, single point].
For `CCOc1ccccc1C(=O)Nc1ccsc1C(=O)OC`, the Potency was inconclusive: 3.53 µM [inhibitor, single point].
In the case of `Cc1nc(CSc2nsc(/C=C/N(C)C)c2C#N)cs1`, the Potency is reported as inconclusive: 25 µM [inhibitor, single point].
With `CCc1nc(Nc2ccc3nccnc3c2)c2oc3ccccc3c2n1` the Potency was inconclusive: 13 µM [inhibitor, partial curve].
In the case of `COc1ccc2o/c(=N/NC(=O)c3cccs3)c(C(N)=O)cc2c1`, the Potency is reported as active: 3.96 µM.
With `COc1cc(C2c3cc4c(cc3C(OC3OC5COC(c6cccs6)OC5C(O)C3O)C3COC(=O)C23)OCO4)cc(OC)c1O` (configuration not stated) the Potency was inconclusive: 7.04 µM [inhibitor, partial curve].
`COc1cc(Br)c(/C=C(\C#N)c2nc3ccccc3[nH]2)cc1OC` was tested, and the Potency was inconclusive: 29.1 µM [inhibitor, single point].
For `Cc1c(N2C(=O)/C(=C/c3ccc(N(C)C)cc3)N(C)C2=S)c(=O)n(-c2ccccc2)n1C`, the Potency was inconclusive: 9.2 µM [inhibitor, partial curve].
`O=C1/C(=C/c2ccc(O)cc2)SC(=S)N1Cc1cccnc1` was tested, and the max response was inactive: -10.2%.
For `COc1ccc(/C=N\NC(=O)c2ccccc2F)cc1COc1ccc(F)cc1F`, the Potency was inconclusive: 1.58 µM [inhibitor, full curve].
For `CC(=O)Nc1cccc(-c2ccnc3c2CC(C)(C(=O)NCc2cccs2)O3)c1` (configuration not stated), the max response was inactive: -24.8%.
For `C=CCOc1ccc2nc(NC(=O)OC)[nH]c2c1`, the Potency was inconclusive: 0.79 µM [inhibitor, full curve, poor fit].
`CC1=CC(C)(C)Nc2ccc(OC(=O)c3ccco3)cc21` was tested, and the Potency was inconclusive: 15.8 µM [inhibitor, single point].
For `COc1ccc(Cl)cc1NC(=O)CN(C)CC(=O)Nc1ccccc1N1CCOCC1`, the Potency was inconclusive: 1.4 µM [inhibitor, full curve].
With `N#Cc1c(-c2ccccc2)c(-c2ccccc2)nn(CC(=O)NNC(=O)Nc2ccccc2)c1=O` the Potency was inconclusive: 6.27 µM [inhibitor, partial curve].
For `CCC(=Nc1ccccc1O)C1=C(O)CC(c2ccccc2)CC1=O` (configuration not stated), the max response was inactive: -8%.
`Cc1cc(C)c[n+](-c2nc3ccccc3nc2[N-]S(=O)(=O)c2ccc(Br)s2)c1` was tested, and the Potency was inconclusive: 16.4 µM [inhibitor, single point].
In the case of `COc1ccccc1/C=N/NC(=O)c1cc2c(OC)c(OC)ccc2[nH]1`, the Potency is reported as inconclusive: 4.44 µM [inhibitor, partial curve].
Also: nearly all actives have a fitted effect of over 70% in size.
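For max response in this document: % of control where 0% means no effect; active compounds raise eYFP fluorescence by blocking Vif-driven A3F loss.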
Potency is read from the fitted curve at half-maximal effect.
